Taken from: PubChem BioAssay AID1259308 (NCATS, 2017)

Screen: 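Knock-downs that increase output of a recombinant reporter protein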 (primary screen)
Cells: human HEK293 embryonic kidney cells stably expressing firefly luciferase (HEK-CMV-Luc2-Hygro)
Reagent: single siRNA against human genes, 0.8 pmol siRNA per well
Duration: 72 h
Read-out: 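Reporter luminescence and viable-cell signal on separate replicate plates, given as percent of non-targeting control and median/MAD z-scores, plus per-cell luciferase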
Scale: total luciferase, z-score and total luciferase, % of control: higher = more reporter protein produced
Call rule: 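Active when the median/MAD z-score for overall luciferase is greater than 3; a gene was taken forward for validation with new siRNAs if at least two of its three siRNAs passed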
Meaning of the calls: active = raised luciferase; inactive = no rise
The deposit covers about 59,000 reagents; shown is an unselected part. In the full data, about 1,510 (2.6%) got an active call. 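Calls use total luciferase alone and ignore viability, so some active siRNAs may act by altering cell number.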 Reagents against one gene are numbered here. Further read-outs or replicates are left out here. Reagent sequences are not shown.

What did the screen give for CFAP70 #1?
total luciferase, z-score: -1.27; total luciferase, % of control: 56.6; Call: inactive

With CFAP70 #2, how do the results read?
total luciferase, z-score: -0.887; total luciferase, % of control: 64.2; Call: inactive

Which result is listed for CFAP70 #3?
total luciferase, z-score: -0.447; total luciferase, % of control: 73; Call: inactive

Which result is listed for RIC1 #1?
total luciferase, z-score: 1.98; total luciferase, % of control: 121; Call: inactive

What is on record for RIC1 #2?
total luciferase, z-score: 0.61; total luciferase, % of control: 94; Call: inactive

For RIC1 #3, what does the deposit list?
total luciferase, z-score: 2.04; total luciferase, % of control: 122; Call: inactive

Which result is listed for GLS #1?
total luciferase, z-score: -0.996; total luciferase, % of control: 62.1; Call: inactive

For GLS #2, what does the deposit list?
total luciferase, z-score: -0.0106; total luciferase, % of control: 81.7; Call: inactive

How did the screen score GLS #3?
total luciferase, z-score: -1.1; total luciferase, % of control: 60; Call: inactive

For RGPD5 #1, what was measured?
total luciferase, z-score: -0.0821; total luciferase, % of control: 80.3; Call: inactive

With RGPD5 #2, what was measured?
total luciferase, z-score: -0.0178; total luciferase, % of control: 81.5; Call: inactive

What did the screen give for RGPD5 #3?
total luciferase, z-score: 0.199; total luciferase, % of control: 85.8; Call: inactive

What did the screen give for FLJ32154 (retired record) #1?
total luciferase, z-score: 0.485; total luciferase, % of control: 91.5; Call: inactive

Which result is listed for FLJ32154 (retired record) #2?
total luciferase, z-score: 1.21; total luciferase, % of control: 106; Call: inactive

For FLJ32154 (retired record) #3, what does the deposit list?
total luciferase, z-score: -0.252; total luciferase, % of control: 76.9; Call: inactive

For FBXL17 #1, how do the results read?
total luciferase, z-score: -0.44; total luciferase, % of control: 73.1; Call: inactive

What did the screen give for FBXL17 #2?
total luciferase, z-score: 0.69; total luciferase, % of control: 95.6; Call: inactive

For FBXL17 #3, what was measured?
total luciferase, z-score: -0.48; total luciferase, % of control: 72.3; Call: inactive

For RAB11FIP1 #1, how do the results read?
total luciferase, z-score: 0.325; total luciferase, % of control: 88.4; Call: inactive

Which result is listed for RAB11FIP1 #2?
total luciferase, z-score: -0.0351; total luciferase, % of control: 81.2; Call: inactive

Which result is listed for RAB11FIP1 #3?
total luciferase, z-score: -0.00331; total luciferase, % of control: 81.8; Call: inactive

What is on record for SEMA3B #1?
total luciferase, z-score: 0.0512; total luciferase, % of control: 82.9; Call: inactive

How did the screen score SEMA3B #2?
total luciferase, z-score: -0.495; total luciferase, % of control: 72; Call: inactive

What did the screen give for SEMA3B #3?
total luciferase, z-score: 0.728; total luciferase, % of control: 96.4; Call: inactive

What did the screen give for IL21R #1?
total luciferase, z-score: -0.312; total luciferase, % of control: 75.7; Call: inactive

Which result is listed for IL21R #2?
total luciferase, z-score: -0.405; total luciferase, % of control: 73.8; Call: inactive

With IL21R #3, how do the results read?
total luciferase, z-score: -0.0467; total luciferase, % of control: 81; Call: inactive

What is on record for RBMY2DP #1?
total luciferase, z-score: -0.0928; total luciferase, % of control: 80; Call: inactive

What is on record for RBMY2DP #2?
total luciferase, z-score: 0.0672; total luciferase, % of control: 83.2; Call: inactive

For RBMY2DP #3, how do the results read?
total luciferase, z-score: 2.19; total luciferase, % of control: 125; Call: inactive

What did the screen give for ARID5A #1?
total luciferase, z-score: -2; total luciferase, % of control: 42; Call: inactive

What did the screen give for ARID5A #2?
total luciferase, z-score: -0.793; total luciferase, % of control: 66.1; Call: inactive

Which result is listed for ARID5A #3?
total luciferase, z-score: 0.707; total luciferase, % of control: 95.9; Call: inactive
